We go through 2 molecules from doi:10.1101/2022.06.09.494639.

Sequences of proteins named here, by UniProt entry; tags and fusion partners are left off.
UniProt P49841: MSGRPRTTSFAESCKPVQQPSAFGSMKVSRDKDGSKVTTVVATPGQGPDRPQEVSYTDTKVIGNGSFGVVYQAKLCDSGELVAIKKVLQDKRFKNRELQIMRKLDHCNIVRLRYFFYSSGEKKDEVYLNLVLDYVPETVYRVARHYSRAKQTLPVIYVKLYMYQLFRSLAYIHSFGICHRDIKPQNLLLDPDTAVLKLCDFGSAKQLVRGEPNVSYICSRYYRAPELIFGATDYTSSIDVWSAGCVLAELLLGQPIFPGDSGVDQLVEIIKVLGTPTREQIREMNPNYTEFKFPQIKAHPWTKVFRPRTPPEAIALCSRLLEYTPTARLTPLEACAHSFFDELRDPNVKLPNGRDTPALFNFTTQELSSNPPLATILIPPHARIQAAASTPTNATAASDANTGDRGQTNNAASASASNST

These are yes or no findings as the source states them, for the method shown. In cells and extracts the contact can be indirect. Some binding calls cover weakened binding; strength is not graded here.

This assay concerns the target Glycogen Synthase Kinase 3 Beta (human (endogenous in AC16)) (UniProt P49841). In words: co-IP.

B1: Disrupted-in-Schizophrenia 1 (DISC1) in human AC16 cardiomyocytes (protein, UniProt Q9NRI5 1-854)
chain: MPGGGPQGAPAAAGGGGVSHRAGSRDCLPPAACFRRRRLARRPGYMRSSTGPGIGFLSPAVGTLFRFPGGVSGEESHHSESRARQCGLDSRGLLVRSPVSKSAAAPTVTSVRGTSAHFGIQLRGGTRLPDRLSWPCGPGSAGWQQEFAAMDSSETLDASWEAACSDGARRVRAAGSLPSAELSSNSCSPGCGPEVPPTPPGSHSAFTSSFSFIRLSLGSAGERGEAEGCPPSREAESHCQSPQEMGAKAASLDGPHEDPRCLSRPFSLLATRVSADLAQAARNSSRPERDMHSLPDMDPGSSSSLDPSLAGCGGDGSSGSGDAHSWDTLLRKWEPVLRDCLLRNRRQMEVISLRLKLQKLQEDAVENDDYDKAETLQQRLEDLEQEKISLHFQLPSRQPALSSFLGHLAAQVQAALRRGATQQASGDDTHTPLRMEPRLLEPTAQDSLHVSITRRDWLLQEKQQLQKEIEALQARMFVLEAKDQQLRREIEEQEQQLQWQGCDLTPLVGQLSLGQLQEVSKALQDTLASAGQIPFHAEPPETIRSLQERIKSLNLSLKEITTKVCMSEKFCSTLRKKVNDIETQLPALLEAKMHAISGNHFWTAKDLTEEIRSLTSEREGLEGLLSKLLVLSSRNVKKLGSVKEDYNRLRREVEHQETAYETSVKENTMKYMETLKNKLCSCKCPLLGKVWEADLEACRLLIQSLQLQEARGSLSVEDERQMDDLEGAAPPIPPRLHSEDKRKTPLKVLEEWKTHLIPSLHCAGGEQKEESYILSAELGEKCEDIGKKLLYLEDQLHTAIHSHDEDLIQSLRRELQMVKETLQAMILQLQPAKEAGEREAAASCMTAGVHEAQA
In the case of B1, the binding entry is listed as “binds”.

B2: full length (FL) wild type DISC1 resistant to RNAi (DISC1-FL^R) (protein, UniProt Q9NRI5-1 1-854)
chain: MPGGGPQGAPAAAGGGGVSHRAGSRDCLPPAACFRRRRLARRPGYMRSSTGPGIGFLSPAVGTLFRFPGGVSGEESHHSESRARQCGLDSRGLLVRSPVSKSAAAPTVTSVRGTSAHFGIQLRGGTRLPDRLSWPCGPGSAGWQQEFAAMDSSETLDASWEAACSDGARRVRAAGSLPSAELSSNSCSPGCGPEVPPTPPGSHSAFTSSFSFIRLSLGSAGERGEAEGCPPSREAESHCQSPQEMGAKAASLDGPHEDPRCLSRPFSLLATRVSADLAQAARNSSRPERDMHSLPDMDPGSSSSLDPSLAGCGGDGSSGSGDAHSWDTLLRKWEPVLRDCLLRNRRQMEVISLRLKLQKLQEDAVENDDYDKAETLQQRLEDLEQEKISLHFQLPSRQPALSSFLGHLAAQVQAALRRGATQQASGDDTHTPLRMEPRLLEPTAQDSLHVSITRRDWLLQEKQQLQKEIEALQARMFVLEAKDQQLRREIEEQEQQLQWQGCDLTPLVGQLSLGQLQEVSKALQDTLASAGQIPFHAEPPETIRSLQERIKSLNLSLKEITTKVCMSEKFCSTLRKKVNDIETQLPALLEAKMHAISGNHFWTAKDLTEEIRSLTSEREGLEGLLSKLLVLSSRNVKKLGSVKEDYNRLRREVEHQETAYETSVKENTMKYMETLKNKLCSCKCPLLGKVWEADLEACRLLIQSLQLQEARGSLSVEDERQMDDLEGAAPPIPPRLHSEDKRKTPLKVLEEWKTHLIPSLHCAGGEQKEESYILSAELGEKCEDIGKKLLYLEDQLHTAIHSHDEDLIQSLRRELQMVKETLQAMILQLQPAKEAGEREAAASCMTAGVHEAQA
On to B2, for which the binding result was “binds”.
